These are yes or no findings as the source states them, for the method shown. In cells and extracts the contact can be indirect. Some binding calls cover weakened binding; strength is not graded here.
What was measured:
β-catenin = β-catenin (UniProt P35222); experiment: co-IP; HEK293T cells treated with pCMV-β-catenin plasmid for 48 h; lysate immunoprecipitated with USP9X antibody or with β-catenin antibody, western blot
[1] = biological target: USP9X (human (endogenous in HEK293T)) (UniProt Q93008); experiment: as above

Amino acid sequences for entries named in this document (tags omitted).
UniProt P35222: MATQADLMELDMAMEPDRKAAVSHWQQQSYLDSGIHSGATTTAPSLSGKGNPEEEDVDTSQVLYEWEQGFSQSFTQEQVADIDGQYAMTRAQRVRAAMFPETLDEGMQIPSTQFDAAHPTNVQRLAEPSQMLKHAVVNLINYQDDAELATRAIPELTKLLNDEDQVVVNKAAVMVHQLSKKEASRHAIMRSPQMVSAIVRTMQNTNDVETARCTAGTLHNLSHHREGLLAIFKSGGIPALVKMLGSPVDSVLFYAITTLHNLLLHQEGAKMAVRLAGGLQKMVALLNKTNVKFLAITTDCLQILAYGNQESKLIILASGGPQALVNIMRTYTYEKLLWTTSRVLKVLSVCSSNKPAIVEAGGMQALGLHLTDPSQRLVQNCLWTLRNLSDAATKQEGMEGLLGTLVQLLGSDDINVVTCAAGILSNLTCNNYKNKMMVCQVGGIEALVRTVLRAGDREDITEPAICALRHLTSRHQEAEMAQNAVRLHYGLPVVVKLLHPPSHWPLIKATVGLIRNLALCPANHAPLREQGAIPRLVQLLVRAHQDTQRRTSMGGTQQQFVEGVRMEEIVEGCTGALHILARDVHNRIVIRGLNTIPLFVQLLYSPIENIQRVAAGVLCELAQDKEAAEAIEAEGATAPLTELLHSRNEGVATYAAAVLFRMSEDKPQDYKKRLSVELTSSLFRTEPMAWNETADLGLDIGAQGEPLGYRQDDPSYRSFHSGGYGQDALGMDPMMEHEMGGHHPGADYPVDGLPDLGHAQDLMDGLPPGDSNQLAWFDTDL
UniProt Q93008: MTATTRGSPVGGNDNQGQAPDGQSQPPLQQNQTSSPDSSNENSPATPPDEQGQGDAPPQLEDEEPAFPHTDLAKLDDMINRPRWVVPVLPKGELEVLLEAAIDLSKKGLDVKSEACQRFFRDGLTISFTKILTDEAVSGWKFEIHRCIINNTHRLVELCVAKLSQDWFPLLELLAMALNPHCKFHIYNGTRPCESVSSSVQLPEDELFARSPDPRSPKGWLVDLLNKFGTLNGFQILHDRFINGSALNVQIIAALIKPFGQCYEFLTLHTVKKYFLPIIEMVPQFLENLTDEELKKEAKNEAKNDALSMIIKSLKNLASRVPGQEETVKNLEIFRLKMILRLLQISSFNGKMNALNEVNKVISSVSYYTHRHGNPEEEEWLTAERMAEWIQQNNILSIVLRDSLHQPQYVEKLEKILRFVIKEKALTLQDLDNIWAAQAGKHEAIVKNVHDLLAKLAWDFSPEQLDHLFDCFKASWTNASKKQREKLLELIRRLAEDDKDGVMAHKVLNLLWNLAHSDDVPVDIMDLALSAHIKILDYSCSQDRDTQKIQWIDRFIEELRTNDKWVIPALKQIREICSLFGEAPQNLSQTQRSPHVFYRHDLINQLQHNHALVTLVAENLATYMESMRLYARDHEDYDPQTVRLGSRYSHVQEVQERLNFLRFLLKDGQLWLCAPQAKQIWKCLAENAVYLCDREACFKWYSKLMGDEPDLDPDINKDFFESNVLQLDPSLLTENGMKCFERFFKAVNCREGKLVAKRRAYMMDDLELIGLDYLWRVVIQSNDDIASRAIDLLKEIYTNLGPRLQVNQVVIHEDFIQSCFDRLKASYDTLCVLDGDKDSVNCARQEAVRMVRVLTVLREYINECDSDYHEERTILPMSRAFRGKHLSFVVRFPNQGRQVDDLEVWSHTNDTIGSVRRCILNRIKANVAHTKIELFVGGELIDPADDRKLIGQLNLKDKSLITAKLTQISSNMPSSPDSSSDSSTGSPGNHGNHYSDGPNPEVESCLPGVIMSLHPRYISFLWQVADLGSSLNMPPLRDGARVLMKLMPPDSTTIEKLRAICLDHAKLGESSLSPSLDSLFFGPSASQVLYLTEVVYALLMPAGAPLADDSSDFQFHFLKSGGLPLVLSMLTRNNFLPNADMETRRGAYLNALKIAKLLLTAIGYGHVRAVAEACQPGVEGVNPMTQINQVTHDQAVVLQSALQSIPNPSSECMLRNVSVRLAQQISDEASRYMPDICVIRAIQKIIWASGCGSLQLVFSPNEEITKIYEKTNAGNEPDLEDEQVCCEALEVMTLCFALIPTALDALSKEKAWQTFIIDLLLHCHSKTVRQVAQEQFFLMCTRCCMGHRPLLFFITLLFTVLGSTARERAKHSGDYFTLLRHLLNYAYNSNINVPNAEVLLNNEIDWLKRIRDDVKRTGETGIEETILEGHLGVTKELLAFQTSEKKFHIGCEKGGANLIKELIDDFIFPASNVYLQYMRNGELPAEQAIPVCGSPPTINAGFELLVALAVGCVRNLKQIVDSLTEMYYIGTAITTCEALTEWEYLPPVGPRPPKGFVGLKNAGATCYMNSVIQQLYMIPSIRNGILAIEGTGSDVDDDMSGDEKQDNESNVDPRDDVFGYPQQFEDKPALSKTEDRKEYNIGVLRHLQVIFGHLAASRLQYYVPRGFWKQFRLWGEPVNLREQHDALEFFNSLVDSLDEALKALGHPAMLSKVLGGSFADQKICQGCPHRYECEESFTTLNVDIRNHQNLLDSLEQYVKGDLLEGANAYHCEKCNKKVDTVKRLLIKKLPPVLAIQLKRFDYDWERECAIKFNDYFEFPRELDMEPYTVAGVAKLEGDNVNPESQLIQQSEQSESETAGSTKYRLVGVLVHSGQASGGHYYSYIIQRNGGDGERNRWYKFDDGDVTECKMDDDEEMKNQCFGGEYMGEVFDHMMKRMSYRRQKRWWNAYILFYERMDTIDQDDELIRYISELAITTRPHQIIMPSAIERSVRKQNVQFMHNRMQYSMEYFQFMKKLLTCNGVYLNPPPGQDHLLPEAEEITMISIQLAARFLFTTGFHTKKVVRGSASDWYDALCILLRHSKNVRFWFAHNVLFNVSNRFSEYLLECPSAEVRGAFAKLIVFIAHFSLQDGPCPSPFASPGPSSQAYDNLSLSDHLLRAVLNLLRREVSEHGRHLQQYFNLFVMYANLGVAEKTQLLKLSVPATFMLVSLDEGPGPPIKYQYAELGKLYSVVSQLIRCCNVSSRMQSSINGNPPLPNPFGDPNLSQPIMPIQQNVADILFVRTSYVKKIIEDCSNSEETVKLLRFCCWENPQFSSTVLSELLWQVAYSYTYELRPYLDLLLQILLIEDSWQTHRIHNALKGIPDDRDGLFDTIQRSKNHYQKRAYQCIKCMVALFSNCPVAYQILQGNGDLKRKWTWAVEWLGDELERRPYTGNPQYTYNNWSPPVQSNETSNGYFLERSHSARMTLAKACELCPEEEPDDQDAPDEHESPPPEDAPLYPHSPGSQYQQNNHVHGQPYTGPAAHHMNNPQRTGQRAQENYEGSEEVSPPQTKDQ

binding (β-catenin)	binding [1]	Substance
binds		USP9X (from UniProt Q93008 1-2554) (enzyme)
	binds	β-catenin (from UniProt P35222 1-781)

— article PMC5346732
